Laboratory results: PubChem BioAssay AID504834 (National Center for Advancing Translational Sciences (NCATS), 2011)
In all, about 320,000 compounds went through this assay and about 22,000 (6.9%) were called active. This list was built around the results that the source calls inconclusive (neither active nor inactive); the mix of calls is not that of the screen. Calls come from the whole dose curve; as a rule, active = well fitted inhibition curve with a large enough effect; inconclusive = small, poorly fitted or top-dose-only effect, or another doubt; inactive = no such curve, though single readings can be large or run the other way. Potencies beside an inconclusive call are fits to weak or partial responses and may not hold up.

Assay: Primary qHTS for delayed death inhibitors of the malarial parasite plastid, 96 hour incubation
Details: P. falciparum luciferase reporter growth; series mostly up to 28.7 µM
Outline: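 Erythrocytes infected with luciferase-expressing P. falciparum were dispensed at 2% hematocrit and 0.05% parasitemia (final), then incubated with compounds 96 hours at 37 C in 5% CO2. Luminescence after detection reagent addition reported growth.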
Potency is the fitted concentration of half-maximal effect.

SMILES | Potency
CN1C(=O)NC(c2cccc([N+](=O)[O-])c2)C2=C1CCCC2=O (stereo not drawn) | inactive
Cc1ccc(C)c(N(C(=O)Cn2nnc(-c3cccs3)n2)C(C(=O)NC2CCCC2)c2ccncc2)c1 (stereo not drawn) | inconclusive: 0.0104 µM [inhibitor, full curve, poor fit]
NS(=O)(=O)c1ccc(N/C=C\C(=O)c2ccncc2)cc1 | inconclusive: 18.5 µM [inhibitor, single point]
O=C(Nc1ccc(Cl)cc1)N(CCCN1CCOCC1)Cc1cccs1 | inconclusive: 18.5 µM [inhibitor, single point]
Cc1ccc(OCCNC(=O)C(=O)NCc2ccco2)cc1 | inactive
COc1ccccc1CC(=O)Nc1cc(OC)c(NC(=O)c2ccccc2)cc1OC | inconclusive: 11.7 µM [inhibitor, single point]
CCCC/C(C)=N\NC(=O)CNS(=O)(=O)c1ccc([N+](=O)[O-])cc1 | inconclusive: 1.04 µM [inhibitor, full curve, poor fit]
CCOc1ccccc1/C=C/c1cc(C(=O)O)c2ccccc2n1 | inactive
Cc1ccc(NC(=O)Cc2sc(C)nc2-c2ccc(C)cc2)cc1 | inconclusive: 13.1 µM [inhibitor, single point]
Cc1ccc(C)c(C(=O)COC(=O)c2cc([N+](=O)[O-])ccc2NCCO)c1 | inconclusive: 18.5 µM [inhibitor, single point]
Cc1cccc(C)c1NC(=O)CSc1nc2c([nH]1)c(=O)n(C)c(=O)n2C | inactive
CC(C)(C)C(=O)c1cn(CC(=O)NCc2ccco2)c2ccccc12 | inactive
S=C(NC1CCCCC1)NC1CC2C=CC1C2 (stereo not drawn) | inconclusive: 11.7 µM [inhibitor, single point]
Brc1ccc(-c2noc(C3CCCCC3)n2)cc1 | inactive
COc1ccc2c([N+](=O)[O-])c(N3CCCC3)[nH]c2c1 | inconclusive: 9.28 µM [inhibitor, partial curve]
O=C(c1ccc2c(c1)C(=O)N(Cc1ccco1)C2=O)N1CCOCC1 | inconclusive: 1.85 µM [inhibitor, full curve]
c1ccc2c(CCNc3ncnc4nc[nH]c34)c[nH]c2c1 | inconclusive: 0.657 µM [inhibitor, full curve]
Cc1cc(NS(=O)(=O)c2ccc(Nc3nc(-c4sc(N)nc4C)cs3)cc2)no1 | inconclusive: 18.5 µM [inhibitor, partial curve, poor fit]
CCOC(=O)c1cccc(NC(=O)CCc2nnc3ccc(N4CCOCC4)nn23)c1 | inactive
COc1ccccc1/C=C/C(=O)OCC(=O)Nc1ccc2c(c1)OCCO2 | inactive
O=C(CCN1C(=O)c2ccccc2C1=O)Nc1ccc(-c2nc3ccccc3s2)cc1 | active: 1.31 µM
Cc1ccc2sc(NNC(=O)c3cc(=O)c4ccccc4o3)nc2c1C | inconclusive: 18.5 µM [inhibitor, single point]
O=C(NN=C1CCCC1)c1ccn[nH]1 | inconclusive: 4.15 µM [inhibitor, partial curve, poor fit]
Cc1ccc(C(=O)NCc2ccco2)cc1[N+](=O)[O-] | inactive
CC(C)(O)C#Cc1ccc(C(=O)Nc2ccc3c(c2)OCO3)s1 | inconclusive: 18.5 µM [inhibitor, partial curve, poor fit]

SMILES | Potency
Cc1cccc(NC(=O)N2CCc3ccccc3C2)c1C | inactive
Cc1cc(C)cc(N2C(=O)CN(Cc3ccccc3)C2=S)c1 | active: 4.65 µM
Cc1c(OC(C)C(=O)NCC2CCC(C(=O)O)CC2)ccc2c(-c3ccccc3)cc(=O)oc12 (stereo not drawn) | inconclusive: 9.28 µM [inhibitor, partial curve, poor fit]
COc1ccccc1C1CCN(c2cc(O)ccc2[N+](=O)[O-])CC1 | inconclusive: 13.1 µM [inhibitor, single point]
CCCCCOC(=O)Nc1nnc(CCC)s1 | inconclusive: 2.08 µM [inhibitor, single point]
NC(=S)c1cn(C2OC(CO)C(O)C2O)c2ncnc(N)c12 (stereo not drawn) | active: 4.15 µM
CCn1c(C)c(C)c2cc(C(=O)NCCCN3CCOCC3)ccc21 | inconclusive: 2.08 µM [inhibitor, full curve]
CCOc1ccc(NC(=O)[C@H](C)NC(=O)C2CC(=O)N(c3ccc(OC)cc3)C2)cc1 (stereo partly drawn) | inconclusive: 18.5 µM [inhibitor, single point]
Cc1ccc(-c2cc(C(=O)Nc3ccc(S(=O)(=O)N4CC(C)OC(C)C4)cc3)[nH]n2)c(O)c1 (stereo not drawn) | active: 0.657 µM
N#Cc1ccccc1CN1C(=O)c2ccccc2S1(=O)=O | inactive
CC(=O)c1ccc(N2CCCCCC2)c(F)c1 | inconclusive: 1.17 µM [inhibitor, partial curve, poor fit]
Cc1ccc(Cn2nnc3c(=O)[nH]c(C4CCCN(C(=O)Nc5ccc(F)cc5F)C4)nc32)cc1 (stereo not drawn) | inconclusive: 0.37 µM [inhibitor, full curve, poor fit]
Nc1nn2cc(-c3ccccc3)nc2c2ccccc12 | inactive
O=C(NCc1ccncc1)c1ccccc1Nc1ccc(SC(F)F)cc1 | inconclusive: 18.5 µM [inhibitor, single point]
Cc1cc2c(OCC(O)CNCc3ccco3)cccc2[nH]1 (stereo not drawn) | active: 3.29 µM
COc1cccc(-c2csc(NC(=O)C3CC3)n2)c1 | inactive
CCC(C)c1ccccc1OCCCCN1CCCC1 (stereo not drawn) | inconclusive: 18.5 µM [inhibitor, single point]
CCOc1cccc(C(=O)NC(=S)Nc2cccc(C)c2)c1 | inconclusive: 1.65 µM [inhibitor, single point]
O=C(Nc1ccc(Cl)cc1)NC1CCCc2ccccc21 (stereo not drawn) | inconclusive: 18.5 µM [inhibitor, single point]
CCCc1nnc(NC(=O)C(C)N2C(=O)C3C4C=CC(C4)C3C2=O)s1 (stereo not drawn) | inconclusive: 18.5 µM [inhibitor, single point]
Clc1ccccc1OCCCn1ccnc1 | inconclusive: 11.7 µM [inhibitor, single point]
CC(C)CCNC(=O)CSc1nc2ccsc2c(=O)n1NC(=O)c1ccccc1 | inconclusive: 18.5 µM [inhibitor, single point]
CCOC(=O)c1c(-c2ccc(Cl)cc2)cn2ccccc12 | inconclusive: 18.5 µM [inhibitor, single point]
Cc1ccnc(NC(=O)c2ccc3c(c2)C(=O)N(CCC(C)C)C3=O)c1 | inconclusive: 5.22 µM [inhibitor, partial curve, poor fit]
CN1CCN(S(=O)(=O)c2cc([N+](=O)[O-])ccc2N2CCCCCC2)CC1 | inconclusive: 18.5 µM [inhibitor, partial curve, poor fit]

Molecules shown so far that have a Cl atom, in the order listed:
SMILES | Potency
O=C(Nc1ccc(Cl)cc1)N(CCCN1CCOCC1)Cc1cccs1 | inconclusive: 18.5 µM [inhibitor, single point]
O=C(Nc1ccc(Cl)cc1)NC1CCCc2ccccc21 (stereo not drawn) | inconclusive: 18.5 µM [inhibitor, single point]
Clc1ccccc1OCCCn1ccnc1 | inconclusive: 11.7 µM [inhibitor, single point]
CCOC(=O)c1c(-c2ccc(Cl)cc2)cn2ccccc12 | inconclusive: 18.5 µM [inhibitor, single point]

More compounds follow.

SMILES | Potency
COc1ccc([C@H]2CC(=O)C=C(c3ccc(C(F)(F)F)c(C(F)(F)F)c3)C2)cc1OC | inconclusive: 4.15 µM [inhibitor, single point]
Cc1ccc(-c2ccc(CCC(=O)O)n2Cc2ccco2)cc1 | inconclusive: 10.4 µM [inhibitor, partial curve, poor fit]
COCCn1c(-c2ccc(OC)cc2)cnc1SCC(=O)Nc1ccc(OC)cc1OC | inactive
COC(=O)c1[nH]c2ccccc2c1NC(=O)/C=C/c1ccc2c(c1)OCO2 | inactive
O=C(NC(=S)Nc1ccc(F)cc1)c1ccc2c(c1)OCCO2 | inconclusive: 0.738 µM [inhibitor, partial curve, poor fit]
Cc1ccc(N(Cc2cc3cc(C)ccc3[nH]c2=O)S(=O)(=O)c2ccccc2)cc1 | inactive
COc1ccccc1N1CCN(c2nc(-c3ccccc3)cc(C(F)(F)F)n2)CC1 | inconclusive: 13.1 µM [inhibitor, partial curve, poor fit]
CC(=O)c1ccc(N2CCN(CC(=O)Nc3ccc4c(c3)OCCO4)CC2)cc1 | inconclusive: 2.94 µM [inhibitor, single point]
CC(C)(C)n1nnnc1C(c1cccs1)N1CCN(Cc2ccccc2)CC1 (stereo not drawn) | inactive
O=C(COc1ccccc1)Nc1ccc(N2CCN(C(=O)c3ccco3)CC2)cc1 | inconclusive: 14.7 µM [inhibitor, single point]
c1ccc(C(c2ccccc2)N2CCN(Cc3nnnn3C3CCCC3)CC2)cc1 | inactive
Cc1cc(-c2cn3ccccc3n2)c(C)n1-c1ccccc1 | inconclusive: 14.7 µM [inhibitor, single point]
Cc1ccc2oc(=O)cc(/C=C/c3ccccc3)c2c1 | inactive
CN(C)c1nc(NS(=O)(=O)c2ccc(Cl)cc2)nc(N(C)C)n1 | inactive
CN(c1ccc(F)cc1)S(=O)(=O)c1ccc(Cl)c(C(=O)OCC(=O)NCc2ccco2)c1 | inactive
CC1CCC(NC(=O)COC(=O)c2n[nH]c(=O)c3ccccc23)CC1 (stereo not drawn) | inactive
O=C1CCCN1c1ccc(N2CCCC2=O)cc1 | active: 2.08 µM
COc1cc(/C=N/NC(=O)c2cccs2)ccc1OCc1ccccc1 | inconclusive: 18.5 µM [inhibitor, single point]
CC(C)C(C)(C#N)NC(=O)CSc1nnc(-c2ccncc2)n1Cc1ccccc1 (stereo not drawn) | active: 3.7 µM
CC(=O)N1CSCC1C(=O)N1CCN(c2ccc(N3CCOCC3)nn2)CC1 (stereo not drawn) | inconclusive: 18.5 µM [inhibitor, single point]
Cn1c(=O)c(C(=O)Nc2ccccn2)c(O)c2ccccc21 | active: 10.4 µM
CCc1ccccc1N1C(=O)C2C3C=CC(CC3)C2C1=O (stereo not drawn) | inconclusive: 16.5 µM [inhibitor, single point]
Cc1cc(C(C)(C)C)oc1C(=O)N(CC(=O)NC1CCCC1)c1c(C)cccc1C | inconclusive: 9.28 µM [inhibitor, partial curve]
